The source of these data is paper PMC12504744.

Amino acid sequences for entries named in this document (tags omitted). A change or cut given only in a name is not applied to a line headed by its entry. Residues count along the entry.
UniProt P03372: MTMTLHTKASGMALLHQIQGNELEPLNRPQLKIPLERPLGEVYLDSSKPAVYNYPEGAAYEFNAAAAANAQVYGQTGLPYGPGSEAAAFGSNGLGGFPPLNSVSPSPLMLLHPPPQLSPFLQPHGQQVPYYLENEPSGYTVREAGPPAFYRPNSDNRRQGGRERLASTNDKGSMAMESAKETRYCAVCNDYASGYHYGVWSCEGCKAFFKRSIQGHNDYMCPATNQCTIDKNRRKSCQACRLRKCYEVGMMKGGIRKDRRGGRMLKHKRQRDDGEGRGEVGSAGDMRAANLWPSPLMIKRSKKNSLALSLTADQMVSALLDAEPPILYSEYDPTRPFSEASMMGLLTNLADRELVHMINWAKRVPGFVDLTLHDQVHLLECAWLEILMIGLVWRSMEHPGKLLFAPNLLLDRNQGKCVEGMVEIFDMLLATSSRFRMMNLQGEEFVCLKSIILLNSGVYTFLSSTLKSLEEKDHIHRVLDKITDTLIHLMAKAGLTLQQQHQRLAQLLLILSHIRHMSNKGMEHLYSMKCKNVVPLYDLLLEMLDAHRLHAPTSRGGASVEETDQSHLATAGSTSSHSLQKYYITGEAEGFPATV
GST-ERαAF1 (GST-ERα 29-180aa): residues 29-180 of P03372
GST-ERαAF2 (GST-ERα 282-595aa): residues 282-595 of P03372
UniProt P19785: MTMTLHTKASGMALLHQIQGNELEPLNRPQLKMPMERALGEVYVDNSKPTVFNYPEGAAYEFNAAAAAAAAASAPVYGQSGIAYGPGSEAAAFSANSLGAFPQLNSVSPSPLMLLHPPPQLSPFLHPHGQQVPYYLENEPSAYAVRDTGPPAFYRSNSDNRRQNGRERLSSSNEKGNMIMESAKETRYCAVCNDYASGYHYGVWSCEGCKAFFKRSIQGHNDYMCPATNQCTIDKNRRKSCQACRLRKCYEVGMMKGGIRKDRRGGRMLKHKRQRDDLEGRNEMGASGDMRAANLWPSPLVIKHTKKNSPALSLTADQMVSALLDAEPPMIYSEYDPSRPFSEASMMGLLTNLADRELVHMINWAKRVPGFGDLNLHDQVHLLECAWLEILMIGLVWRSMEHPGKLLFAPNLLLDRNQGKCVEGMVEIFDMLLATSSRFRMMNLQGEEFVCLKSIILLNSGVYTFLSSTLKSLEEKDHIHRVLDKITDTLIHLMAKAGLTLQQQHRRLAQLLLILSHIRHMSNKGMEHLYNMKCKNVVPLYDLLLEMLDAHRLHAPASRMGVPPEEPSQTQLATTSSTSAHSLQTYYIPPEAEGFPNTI
UniProt O94953: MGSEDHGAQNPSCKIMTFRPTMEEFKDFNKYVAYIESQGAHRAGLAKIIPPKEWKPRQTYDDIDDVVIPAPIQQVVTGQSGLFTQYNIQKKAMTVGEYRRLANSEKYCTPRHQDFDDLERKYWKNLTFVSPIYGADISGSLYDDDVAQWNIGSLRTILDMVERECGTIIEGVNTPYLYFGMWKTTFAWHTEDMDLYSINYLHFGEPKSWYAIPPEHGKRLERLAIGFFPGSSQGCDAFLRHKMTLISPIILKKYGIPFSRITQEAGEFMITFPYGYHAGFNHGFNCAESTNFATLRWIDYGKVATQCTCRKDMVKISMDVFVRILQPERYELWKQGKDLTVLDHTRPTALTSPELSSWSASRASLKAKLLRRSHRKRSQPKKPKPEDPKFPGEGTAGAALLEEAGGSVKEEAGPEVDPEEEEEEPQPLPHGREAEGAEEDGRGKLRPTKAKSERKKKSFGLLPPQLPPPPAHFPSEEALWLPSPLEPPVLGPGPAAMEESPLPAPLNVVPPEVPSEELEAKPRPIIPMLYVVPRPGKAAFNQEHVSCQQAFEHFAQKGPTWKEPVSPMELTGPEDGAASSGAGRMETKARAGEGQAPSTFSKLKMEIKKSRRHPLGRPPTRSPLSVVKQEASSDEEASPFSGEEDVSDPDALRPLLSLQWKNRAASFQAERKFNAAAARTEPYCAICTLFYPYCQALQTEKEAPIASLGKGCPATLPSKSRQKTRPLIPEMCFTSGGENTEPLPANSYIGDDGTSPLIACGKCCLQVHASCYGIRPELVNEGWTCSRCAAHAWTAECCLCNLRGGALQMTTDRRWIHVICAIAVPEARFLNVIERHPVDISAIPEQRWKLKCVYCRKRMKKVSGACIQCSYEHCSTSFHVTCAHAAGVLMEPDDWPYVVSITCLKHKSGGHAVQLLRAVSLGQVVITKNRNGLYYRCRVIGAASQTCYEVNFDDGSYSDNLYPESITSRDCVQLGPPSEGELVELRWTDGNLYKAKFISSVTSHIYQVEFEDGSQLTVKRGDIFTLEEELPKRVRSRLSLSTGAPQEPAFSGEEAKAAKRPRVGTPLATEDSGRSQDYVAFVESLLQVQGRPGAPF
UniProt Q61188: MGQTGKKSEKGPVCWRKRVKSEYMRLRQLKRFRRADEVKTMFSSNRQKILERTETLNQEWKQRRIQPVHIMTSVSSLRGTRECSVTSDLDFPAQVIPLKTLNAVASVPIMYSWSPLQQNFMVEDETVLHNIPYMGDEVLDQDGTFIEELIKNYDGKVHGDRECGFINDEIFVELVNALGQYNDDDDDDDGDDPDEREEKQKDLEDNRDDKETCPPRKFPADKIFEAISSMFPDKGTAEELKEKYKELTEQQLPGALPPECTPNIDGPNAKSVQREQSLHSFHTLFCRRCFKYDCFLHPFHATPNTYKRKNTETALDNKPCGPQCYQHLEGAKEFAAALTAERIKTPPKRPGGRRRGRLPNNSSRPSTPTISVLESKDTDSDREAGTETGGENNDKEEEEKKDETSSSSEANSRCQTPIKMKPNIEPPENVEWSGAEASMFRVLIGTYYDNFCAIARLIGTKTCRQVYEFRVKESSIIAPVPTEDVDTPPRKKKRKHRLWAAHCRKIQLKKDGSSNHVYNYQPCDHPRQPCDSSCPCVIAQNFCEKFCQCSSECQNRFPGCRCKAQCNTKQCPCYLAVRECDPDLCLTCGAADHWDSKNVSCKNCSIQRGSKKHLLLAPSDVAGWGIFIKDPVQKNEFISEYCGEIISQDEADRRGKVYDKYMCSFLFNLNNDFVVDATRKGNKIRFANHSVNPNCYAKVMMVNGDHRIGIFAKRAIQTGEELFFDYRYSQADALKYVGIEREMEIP
UniProt Q80U70: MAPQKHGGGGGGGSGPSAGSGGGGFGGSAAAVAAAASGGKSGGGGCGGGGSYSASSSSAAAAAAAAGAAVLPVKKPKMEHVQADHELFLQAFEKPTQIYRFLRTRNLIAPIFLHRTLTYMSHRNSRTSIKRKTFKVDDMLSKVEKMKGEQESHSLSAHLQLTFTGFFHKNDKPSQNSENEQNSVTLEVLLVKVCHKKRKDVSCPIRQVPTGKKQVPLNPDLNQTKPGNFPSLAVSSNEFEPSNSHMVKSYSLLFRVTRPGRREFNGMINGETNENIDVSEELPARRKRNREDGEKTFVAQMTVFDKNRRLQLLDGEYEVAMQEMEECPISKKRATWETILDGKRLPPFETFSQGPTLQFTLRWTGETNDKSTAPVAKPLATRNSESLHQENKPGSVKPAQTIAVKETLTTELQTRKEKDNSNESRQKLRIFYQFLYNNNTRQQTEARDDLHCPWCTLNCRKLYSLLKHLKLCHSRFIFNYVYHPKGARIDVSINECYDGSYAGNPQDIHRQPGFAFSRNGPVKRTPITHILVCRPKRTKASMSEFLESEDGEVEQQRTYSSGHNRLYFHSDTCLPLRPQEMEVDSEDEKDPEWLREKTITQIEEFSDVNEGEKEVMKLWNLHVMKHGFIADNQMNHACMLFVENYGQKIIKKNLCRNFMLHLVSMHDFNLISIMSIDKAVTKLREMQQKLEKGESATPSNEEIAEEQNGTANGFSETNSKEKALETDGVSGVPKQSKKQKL
UniProt Q15022: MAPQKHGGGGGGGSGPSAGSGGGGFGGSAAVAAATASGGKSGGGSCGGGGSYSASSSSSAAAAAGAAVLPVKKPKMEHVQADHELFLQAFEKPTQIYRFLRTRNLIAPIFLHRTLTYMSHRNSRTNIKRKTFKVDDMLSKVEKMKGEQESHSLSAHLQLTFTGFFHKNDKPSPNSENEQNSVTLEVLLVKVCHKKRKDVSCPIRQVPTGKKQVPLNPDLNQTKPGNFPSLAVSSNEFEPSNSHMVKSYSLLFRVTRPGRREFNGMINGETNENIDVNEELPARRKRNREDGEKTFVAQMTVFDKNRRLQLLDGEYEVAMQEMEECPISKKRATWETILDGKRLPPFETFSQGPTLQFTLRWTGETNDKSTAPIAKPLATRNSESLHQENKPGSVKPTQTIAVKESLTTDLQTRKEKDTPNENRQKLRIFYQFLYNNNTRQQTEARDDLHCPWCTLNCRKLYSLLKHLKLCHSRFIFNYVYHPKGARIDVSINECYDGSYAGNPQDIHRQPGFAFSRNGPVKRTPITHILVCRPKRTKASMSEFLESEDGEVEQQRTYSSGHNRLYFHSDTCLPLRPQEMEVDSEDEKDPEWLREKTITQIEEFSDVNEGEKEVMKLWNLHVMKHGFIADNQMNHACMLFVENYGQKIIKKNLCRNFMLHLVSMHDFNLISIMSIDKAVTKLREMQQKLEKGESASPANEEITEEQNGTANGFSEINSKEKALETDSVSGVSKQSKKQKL

These are yes or no findings as the source states them, for the method shown. In cells and extracts the contact can be indirect. Some binding calls cover weakened binding; strength is not graded here.

The target in assay [1] is ERα, endogenous in HASMCs (human (endogenous in HASMCs)) (UniProt P03372). As to the kind of experiment: co-IP; endogenous proteins in HASMC whole-cell lysate, Protein G beads, reciprocal co-IP and immunoblotting; also in HASMCs harboring control siRNA or siKDM4B with anti-ERα and IgG. On the technique in general: In western blotting, separated proteins are transferred to a membrane and probed.

The target in assay [2] is ERα, endogenous in MOVAS cells (mouse (endogenous in MOVAS)) (UniProt P19785). Kind of assay: co-IP; endogenous proteins in MOVAS cell whole-cell lysate, Protein G beads, immunoblotting.
In assay [3] the target is GST-ERαAF2 (GST-ERα 282-595aa) (UniProt P03372). Kind of assay: pull-down; GST-ERα fusion proteins on GST-sepharose beads incubated overnight at 4 °C with HA-KDM4B (HEK-293T lysate by the legend, in vitro translated by the methods); washed 4 times with binding buffer (20 mM Tris pH 7.5, 50 mM NaCl, 10% glycerol, 1% Nonidet P-40); western blotting; only the target purified.

Assay [4] has as its target GST-ERαAF1 (GST-ERα 29-180aa) (UniProt P03372). The assay is described as above.
Assay [5] addresses HA-KDM4B expressed in HEK-293 cells (UniProt O94953). Kind of assay: co-IP; HEK-293 cells co-transfected with PcDNA3.1/HA-KDM4B and ERα plasmids, treated with or without estrogen (E2, 100 nM); whole-cell extracts immunoprecipitated with anti-HA or IgG two days after transfection.
In assay [6] the target is KDM4B, endogenous in HASMCs (human (endogenous in HASMCs)) (UniProt O94953). Kind of assay: co-IP; endogenous proteins in HASMC whole-cell lysate, Protein G beads, reciprocal co-IP and immunoblotting; also in HASMCs harboring control siRNA or siKDM4B with anti-ERα and IgG.
In assay [7] the target is HA-KDM4B expressed in HASMCs (UniProt O94953). As to the kind of experiment: co-IP; HASMCs co-transfected with PcDNA3.1/HA-KDM4B and ERα plasmids, treated with or without estrogen; whole-cell extracts immunoprecipitated with anti-HA or IgG two days after transfection.

As for “KDM4B, endogenous in HASMCs (from UniProt O94953 1-1096)”, the binding entry in assay [1] is recorded as “binds”. For the substance “Enhancer of Zeste homolog 2 (EZH2), endogenous in MOVAS cells (from UniProt Q61188 1-746)”, the binding entry in assay [2] is given as “binds”. Consider “HA-KDM4B (histone lysine demethylase 4B), as used in the GST pull-down (from UniProt O94953 1-1096)”, for which the binding result in assay [3] and in assay [4] was “binds” each time.

“ERα (estrogen receptor α) expressed from plasmid in HEK-293 cells (from UniProt P03372 1-595)”: the binding entry in assay [5] is “binds”. On to “Suppressor of Zeste 12 (SUZ12), endogenous in MOVAS cells (from UniProt Q80U70 1-741)”, for which the binding result in assay [2] is recorded as “binds”. Consider “Suppressor of Zeste 12 (SUZ12), endogenous in HASMCs (from UniProt Q15022 1-739)”, for which the binding result in assay [6] and in assay [1] was “binds” in each case. For “ERα (estrogen receptor α) expressed from plasmid in HASMCs (from UniProt P03372 1-595)”, the binding result in assay [7] is “binds”.
